# Measurements reported in the supplement of paper PMC8728848.
# The list shows a part of the results.
# B1: R2-fiber (Pseudomonas aeruginosa), Q9S576 (protein)
# chain: HHHHHHKVAKDLVVSLAYQVRTEDGVLVDESPVSAPLDYLHGHGSLISGLETALEGHEVGDKFDVAVGANDAYGQYDENLVQRVPKDVFMGVDELQVGMRFLAETDQGPVPVEITAVEDDHVVVDGNHMLAGQNLKFNVEVVAIREATEEELAHGHVHGAHDHHHDHDHDGCCGGHGHDHGHEHGGEGCCGGKGNGGCGCHENLYFQGVTAGMALAATDIPGLDASKLVSGVLAEQRLPVFARGLATAVSNSSDPNTATVPLMLTNHANGPVAGRYFYIQSMFYPDQNGNASQIATSYNATSEMYVRVSYAANPSIREWLPWQRCDIGGSFTKEADGELPGGVNLDSMVTSGWWSQSFTAQAASGANYPIVRAGLLHVYAASSNFIYQTYQAYDGESFYFRCRHSNTWFPWRRMWHGGDFNPSDYLLKSGFYWNALPGKPATFPPSAHNHDVGQLTSGILPLARGGVGSNTAAGARSTIGAGVPATASLGASGWWRDNDTGLIRQWGQVTCPADADASITFPIPFPTLCLGGYANQTSAFHPGTDASTGFRGATTTTAVIRNGYFAQAVLSWEAFGR
# Tests used:
# Assay in all cases: glycan array binding signal (z-score within array); higher = stronger binding
# Conditions in all cases: glycan notation: IUPAC condensed, linker removed
# [1] = target: Gal(b1-4)GalNAc(b1-3)[Fuc(a1-2)]Gal(b1-4)GlcNAc
# Method in brief: (§1)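 From the Consortium for Functional Glycomics database, 3228 arrays were curated, keeping only those whose protein sequence was available. Binding is given as a within-array Z-score averaged across arrays sharing a protein sequence and across linkers. Negative Z-scores can be read as non-binding.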
# Gal(b1-4)Glc = target: Gal(b1-4)Glc
# Method in brief: as §1
# Gal(b1-4)Glc6S = target: Gal(b1-4)Glc6S
# Method in brief: as §1
# Gal(b1-4)GlcNAc = target: Gal(b1-4)GlcNAc
# Method in brief: as §1
# [2] = target: Gal(b1-4)GlcNAc(a1-6)Gal(b1-4)GlcNAc
# Method in brief: as §1
# Gal(b1-4)GlcNAc(b1-2)Man = target: Gal(b1-4)GlcNAc(b1-2)Man
# Method in brief: as §1
# [3] = target: Gal(b1-4)GlcNAc(b1-2)Man(a1-3)Man(b1-4)GlcNAc(b1-4)GlcNAc
# Method in brief: as §1
# [4] = target: Gal(b1-4)GlcNAc(b1-2)Man(a1-3)[Gal(b1-4)GlcNAc(b1-2)Man(a1-6)]Man(b1-4)GlcNAc(b1-4)GlcNAc
# Method in brief: as §1
# [5] = target: Gal(b1-4)GlcNAc(b1-2)Man(a1-3)[Gal(b1-4)GlcNAc(b1-2)Man(a1-6)]Man(b1-4)GlcNAc(b1-4)[Fuc(a1-6)]GlcNAc
# Method in brief: as §1
# [6] = target: Gal(b1-4)GlcNAc(b1-2)Man(a1-3)[Gal(b1-4)GlcNAc(b1-2)Man(a1-6)][Gal(b1-4)GlcNAc(b1-4)]Man(b1-4)GlcNAc(b1-4)[Fuc(a1-6)]GlcNAc
# Method in brief: as §1
# [7] = target: Gal(b1-4)GlcNAc(b1-2)Man(a1-3)[Gal(b1-4)GlcNAc(b1-2)Man(a1-6)][GlcNAc(b1-4)]Man(b1-4)GlcNAc(b1-4)[Fuc(a1-6)]GlcNAc
# Method in brief: as §1
# [8] = target: Gal(b1-4)GlcNAc(b1-2)Man(a1-3)[GlcNAc(b1-2)Man(a1-6)]Man(b1-4)GlcNAc(b1-4)GlcNAc
# Method in brief: as §1
# [9] = target: Gal(b1-4)GlcNAc(b1-2)Man(a1-3)[GlcNAc(b1-4)][Gal(b1-4)GlcNAc(b1-2)Man(a1-6)]Man(b1-4)GlcNAc(b1-4)GlcNAc
# Method in brief: as §1
# [10] = target: Gal(b1-4)GlcNAc(b1-2)Man(a1-3)[Man(a1-6)]Man(b1-4)GlcNAc(b1-4)GlcNAc
# Method in brief: as §1
# [11] = target: Gal(b1-4)GlcNAc(b1-2)Man(a1-6)Man(b1-4)GlcNAc(b1-4)GlcNAc
# Method in brief: as §1
# [12] = target: Gal(b1-4)GlcNAc(b1-2)Man(a1-6)[GlcNAc(b1-2)Man(a1-3)]Man(b1-4)GlcNAc(b1-4)GlcNAc
# Method in brief: as §1
# [13] = target: Gal(b1-4)GlcNAc(b1-2)Man(a1-6)[Man(a1-3)]Man(b1-4)GlcNAc(b1-4)GlcNAc
# Method in brief: as §1
# [14] = target: Gal(b1-4)GlcNAc(b1-2)[Gal(b1-4)GlcNAc(b1-4)]Man(a1-3)[Gal(b1-4)GlcNAc(b1-2)Man(a1-6)]Man(b1-4)GlcNAc(b1-4)GlcNAc
# Method in brief: as §1
# [15] = target: Gal(b1-4)GlcNAc(b1-2)[Gal(b1-4)GlcNAc(b1-4)]Man(a1-3)[Gal(b1-4)GlcNAc(b1-2)[Gal(b1-4)GlcNAc(b1-6)]Man(a1-6)]Man(b1-4)GlcNAc(b1-4)GlcNAc
# Method in brief: as §1
# [16] = target: Gal(b1-4)GlcNAc(b1-2)[Gal(b1-4)GlcNAc(b1-4)]Man(a1-3)[GlcNAc(b1-4)][Gal(b1-4)GlcNAc(b1-2)Man(a1-6)]Man(b1-4)GlcNAc(b1-4)GlcNAc
# Method in brief: as §1
# [17] = target: Gal(b1-4)GlcNAc(b1-2)[Gal(b1-4)GlcNAc(b1-4)]Man(a1-3)[GlcNAc(b1-4)][Gal(b1-4)GlcNAc(b1-2)[Gal(b1-4)GlcNAc(b1-6)]Man(a1-6)]Man(b1-4)GlcNAc(b1-4)GlcNAc
# Method in brief: as §1
# [18] = target: Gal(b1-4)GlcNAc(b1-2)[Gal(b1-4)GlcNAc(b1-6)]Man(a1-6)[Gal(b1-4)GlcNAc(b1-2)Man(a1-3)]Man(b1-4)GlcNAc(b1-4)GlcNAc
# Method in brief: as §1
# [19] = target: Gal(b1-4)GlcNAc(b1-2)[Gal(b1-4)GlcNAc(b1-6)]Man(a1-6)[Gal(b1-4)GlcNAc(b1-2)Man(a1-3)]Man(b1-4)GlcNAc(b1-4)[Fuc(a1-6)]GlcNAc
# Method in brief: as §1
# [20] = target: Gal(b1-4)GlcNAc(b1-2)[Gal(b1-4)GlcNAc(b1-6)]Man(a1-6)[GlcNAc(b1-4)][Gal(b1-4)GlcNAc(b1-2)Man(a1-3)]Man(b1-4)GlcNAc(b1-4)GlcNAc
# Method in brief: as §1
# [21] = target: Gal(b1-4)GlcNAc(b1-2)[Gal(b1-4)GlcNAc(b1-6)]Man(a1-6)[GlcNAc(b1-4)][Gal(b1-4)GlcNAc(b1-2)[Gal(b1-4)GlcNAc(b1-4)]Man(a1-3)]Man(b1-4)GlcNAc(b1-4)[Fuc(a1-6)]GlcNAc
# Method in brief: as §1
# [22] = target: Gal(b1-4)GlcNAc(b1-3)Gal(b1-3)GalNAc
# Method in brief: as §1
# [23] = target: Gal(b1-4)GlcNAc(b1-3)Gal(b1-3)GlcNAc
# Method in brief: as §1
# [24] = target: Gal(b1-4)GlcNAc(b1-3)Gal(b1-4)Glc
# Method in brief: as §1
# [25] = target: Gal(b1-4)GlcNAc(b1-3)Gal(b1-4)GlcNAc
# Method in brief: as §1
# [26] = target: Gal(b1-4)GlcNAc(b1-3)Gal(b1-4)GlcNAc(b1-2)Man(a1-3)[Gal(b1-4)GlcNAc(b1-3)Gal(b1-4)GlcNAc(b1-2)Man(a1-6)]Man(b1-4)GlcNAc(b1-4)GlcNAc
# Method in brief: as §1
binder,measurement,setting,value
B1,glycan array binding signal (z-score),[1],-0.381
same,glycan array binding signal (z-score),Gal(b1-4)Glc,-0.006
same,glycan array binding signal (z-score),Gal(b1-4)Glc6S,-0.602
same,glycan array binding signal (z-score),Gal(b1-4)GlcNAc,0.253
same,glycan array binding signal (z-score),[2],-0.589
same,glycan array binding signal (z-score),Gal(b1-4)GlcNAc(b1-2)Man,-0.027
same,glycan array binding signal (z-score),[3],-0.479
same,glycan array binding signal (z-score),[4],0.253
same,glycan array binding signal (z-score),[5],0.285
same,glycan array binding signal (z-score),[6],0.179
same,glycan array binding signal (z-score),[7],-1.28
same,glycan array binding signal (z-score),[8],0.11
same,glycan array binding signal (z-score),[9],-0.196
same,glycan array binding signal (z-score),[10],-0.052
same,glycan array binding signal (z-score),[11],-0.17
same,glycan array binding signal (z-score),[12],0.217
same,glycan array binding signal (z-score),[13],0.505
same,glycan array binding signal (z-score),[14],-1.04
same,glycan array binding signal (z-score),[15],-0.915
same,glycan array binding signal (z-score),[16],0.23
same,glycan array binding signal (z-score),[17],-0.104
same,glycan array binding signal (z-score),[18],-0.47
same,glycan array binding signal (z-score),[19],0.885
same,glycan array binding signal (z-score),[20],0.562
same,glycan array binding signal (z-score),[21],0.463
same,glycan array binding signal (z-score),[22],-0.99
same,glycan array binding signal (z-score),[23],0.042
same,glycan array binding signal (z-score),[24],-0.479
same,glycan array binding signal (z-score),[25],-0.391
same,glycan array binding signal (z-score),[26],1.32

# Exported as tab-separated lines: part of the list above.
binder	measurement	setting	value
B1	glycan array binding signal (z-score)	[1]	-0.381
same	glycan array binding signal (z-score)	Gal(b1-4)Glc	-0.006
